Source: patent US20190358286A1, “METHODS FOR THE PREVENTION OR TREATMENT OF LEFT VENTRICLE REMODELING” (Stealth BioTherapeutics Corp., priority 2013, published 2019)
Entries after “also recorded” stand apart in the source; their conditions may differ. Part of at least one peptide drawing is inferred or uncertain, most often the ends. Non-standard residues stand in square brackets, D forms with d. Residues, ends and D or L forms follow the SMILES beside them. Dmt = Cc1cc(O)cc(C)c1C[C@H](N)C(=O)O

Tests used:
[1] = tested on: left ventricle tissue (border zone and remote area); assay: qRT-PCR gene expression in left ventricle tissue, chronic myocardial infarction rat model; type: in vivo
[2] = tested on: mitochondrial genes of border zone cells and remote area; assay: Rat mitochondria PCR array (84 genes); type: in vivo
[3] = tested on: mitochondrial respiration genes of border zone cells; assay: Rat mitochondrial energy metabolism PCR array; type: in vivo
[4] = tested on: border zone cells; assay: TUNEL assay of cardiac apoptosis in border zone; type: in vivo, rat; details: compared with non-treated MI border zone group
[5] = tested on: rats with permanent coronary artery occlusion; assay: LV fractional shortening by echocardiography after permanent coronary occlusion; type: in vivo, rat
[6] = tested on: rats with permanent coronary artery occlusion; assay: LV stroke volume and ejection fraction by LV ventriculography; type: in vivo, rat; details: 6 weeks after treatment, 3 mg/kg/day s.c.
[7] = tested on: rats with permanent coronary artery occlusion; assay: Hemodynamics (heart rate, blood pressure, LV pressures by Millar catheter); type: in vivo, rat; details: 6 weeks after treatment
[8] = tested on: rats with permanent coronary artery occlusion; assay: Heart weight and post-mortem LV volume; type: in vivo, rat; details: 6 weeks after treatment
[9] = tested on: rats with permanent coronary artery occlusion; assay: Quantitative histology: scar circumference, scar thickness, expansion index; type: in vivo, rat
[10] = tested on: rats with permanent coronary artery ligation; assay: Example 3: LV chamber volume in post-infarct rodent model of heart failure; type: in vivo, rat
[11] = published manuscripts; cited from earlier work
[12] = treated vs untreated infarct border zone cells

Cc1cc(O)cc(C)c1C[C@H](NC(=O)[C@H](N)CCCNC(=N)N)C(=O)N[C@@H](CCCCN)C(=O)N[C@@H](Cc1ccccc1)C(N)=O [D-Arg-2′,6′-Dmt-Lys-Phe-NH2] (H-[dR][Dmt]KF-NH2)
effect on inflammation (cytokine gene expression) ([1]; at 6 weeks, chronic MI rat model): No Effect
expression of UCP2 ([1]; border zone): stabilized
expression of UCP3 ([1]; border zone): stabilized
PPARδ expression levels ([1]; border zone cells): remained low
expression of ERRα ([1]; border zone myocardium cells): stabilized
expression of PPARα ([1]; border zone myocardium cells): stabilized
expression levels of PGC1 and its target genes (PGC1α, PGC1β, NRF1, Tfam) ([1]; border zone of MI hearts, treated vs untreated): stabilized
expression level of CD36 ([1]; border zone, vs MI/BZ): significantly stabilized
expression level of GLUT4 ([1]; border zone, vs MI/BZ): significantly stabilized
mitochondrial gene expression ([2]; group 2 (MI/BZ + peptide) relative to group 1 (MI/BZ)): stabilized
number of genes with significant increased expression levels ([2]; group 2 vs. group 1, of 84 genes, volcano plot): 15 genes
Fold change Cav2 [2, 12]: 1.46
Fold change Dnmm1I [2, 12]: 1.51
Fold change Fxc1(Timm 10b) [2, 12]: 1.48
Fold change Hspd1 [2, 12]: 1.62
Fold change Immp1l [2, 12]: 1.61
Fold change Mtx2 [2, 12]: 1.55
Fold change Opa1 [2, 12]: 1.64
Fold change Sh3glb1 [2, 12]: 1.48
Fold change Sod2 [2, 12]: 1.55
Fold change Timm8a1 [2, 12]: 1.66
Fold change Timm8b [2, 12]: 1.70
Fold change Timm9 [2, 12]: 1.81
Fold change Timm10 [2, 12]: 1.65
Fold change Uxt [2, 12]: 1.59
mitochondrial gene expressions in the non-ischemic remote area ([2]; with or without peptide): no significant differences
Fold change Cox6c (Complex IV) ([3]; Group 2 vs. Group 1): 1.41
Fold change Ndufa5 (Complex I) ([3]; Group 2 vs. Group 1): 1.26
Fold change Ndufa7 (Complex I) ([3]; Group 2 vs. Group 1): 1.26
Fold change Ndufb3 (Complex I) ([3]; Group 2 vs. Group 1): 1.41
Fold change Ndufc2 (Complex I) ([3]; Group 2 vs. Group 1): 1.30
gene expression of the majority of genes ([3]; compared to untreated samples (group 1 versus group 2)): increased
number of genes showing statistically significant increases in expression ([3]; group 2 vs group 1): five
decrease in gene expression (70 out of 84) in group 1 versus sham ([3]; heatmap, border zone): largely reversed
TUNEL-positive nuclei in border zone cells [4]: trend of decreasing
LVFS ([5]; 6 weeks after treatment, 3 mg/kg/day s.c. osmotic pump from 2 h post occlusion): 28.8±1.7%
LVFS ([5]; 15 minutes after coronary occlusion (before treatment)): 45±1.8
left ventricular fractional shortening (LVFS) ([5]; baseline before coronary occlusion (before treatment)): 44.5±1.1%
LV ejection fraction [6]: 55.3±1.4%
LV stroke volume [6]: 0.257 ± 0.008 mL
Diastolic BP [7]: 85 ± 2 mmHg
Heart Rate [7]: 209 ± 5
Mean BP [7]: 94 ± 3 mmHg
Ped (end diastolic left ventricular pressure) [7]: 5.63 ± 0.84
Pes (end systolic left ventricular pressure) [7]: 105 ± 3
Pmin [7]: 0.64 ± 0.55
Systolic BP [7]: 114 ± 4 mmHg
Tau Glantz [7]: 24.6 ± 0.9
Tau Weiss [7]: 14.6 ± 0.6
minimum left ventricular pressure [7]: 0.64±0.55 mmHg
heart rate, systolic and diastolic blood pressure, difference between the two groups ([7]; vs water): No significant differences
left ventricle positive/negative dp/dt, end systolic and end diastolic left ventricular pressure, Tau (Weiss) and Tau (Glantz), comparison between groups ([7]; vs water): comparable
+dp/dt ([7]; left ventricle): 5668 ± 161
−dp/dt ([7]; left ventricle): 3639 ± 147
Heart weight [8]: 0.724 ± 0.011 g
LV volume (post-mortem) [8]: 0.519 ± 0.019 mL
LV volume/heart weight ([8]; post-mortem): 0.72±0.02
LV non-scar circumference ([9]; 6 weeks after treatment): 15.4±0.4 mm
Scar circumference (percentage of total LV circumference) ([9]; 6 weeks after treatment): 39.7±2.2%
Scar thickness ([9]; 6 weeks after treatment): 0.504 ± 0.039 mm
Septum thickness ([9]; 6 weeks after treatment): 1.45 ± 0.03 mm
scar circumference ([9]; 6 weeks after treatment): 9.9±0.6 mm
scar circumference and scar thickness (summary in words) ([9]; 6 weeks after treatment): reduced scar circumference without increasing scar thickness
Expansion index ([9]; LV cavity area/Total LV area x Septum thickness/Scar thickness): 1.67 ± 0.12
scar thickness, septum thickness and expansion index, comparison between groups ([9]; vs water): comparable
LV volume/heart weight ([10]; 200-300 ng/ml continuously by mini-osmotic pump, six weeks, vs saline): reduces; also recorded: decrease
LV dilation ([10]; chronic treatment, post-infarction model of heart failure): reduced
inflammation [11]: decreases
